Data from patent US10544092B2 (priority 2015, dated 2020).
Some entries share one result that the patent states for a list of compounds. At least one compound was matched to its structure with a doubt left.

Key:
gray mold = assay: fungicidal activity in vitro (High Through Put, 96 cells culture board), gray mold; type: cell-based; details: dosage 25 mg/L, 24 hours
rice blast = type: cell-based; details: dosage 25 mg/L, in vitro, 24 hours
corn rust = assay: protective activity in vivo, corn rust; details: dosage 400 ppm, protective leaf spray, assessed after 7 days

Structure (SMILES): N#CC(C#N)=NOCc1ccc(Cl)cc1 [Compound 4]
- inhibition rate against gray mold (gray mold): 100%

Structure (SMILES): N#CC(C#N)=NOCc1ccccc1F [Compound 5]
- inhibition rate against rice blast (rice blast): 100%

Structure (SMILES): N#CC(C#N)=NOCc1ccc(F)cc1 [Compound 7]
- inhibition rate against gray mold (gray mold): 100%
- inhibition rate against rice blast (rice blast): 100%

Structure (SMILES): N#CC(C#N)=NOCc1ccc(C(F)(F)F)cc1 [Compound 22]
- inhibition rate against gray mold (gray mold): 100%

Structure (SMILES): N#CC(C#N)=NOCc1ccccc1OC(F)(F)F [Compound 23]
- inhibition rate against rice blast (rice blast): 100%

Structure (SMILES): N#CC(C#N)=NOCc1cccc(C#N)c1 [Compound 36]
- inhibition rate against gray mold (gray mold): 100%

Structure (SMILES): N#CC(C#N)=NOCc1ccc(Cl)nc1 [Compound 53]
- inhibition rate against gray mold (gray mold): 100%

Structure (SMILES): N#CC(C#N)=NOCc1ccc(Cl)cc1Cl [Compound 57]
- inhibition rate against rice blast (rice blast): 100%

Structure (SMILES): N#CC(C#N)=NOCc1ccc(Cl)c(Cl)c1 [Compound 59]
- inhibition rate against gray mold (gray mold): 100%
- inhibition rate against rice blast (rice blast): 100%

Structure (SMILES): N#CC(C#N)=NOCc1cc(Cl)cc(Cl)c1 [Compound 60]
- inhibition rate against gray mold (gray mold): 100%

Structure (SMILES): N#CC(C#N)=NOCc1cc([N+](=O)[O-])ccc1Cl [Compound 65]
- inhibition rate against rice blast (rice blast): 100%

Structure (SMILES): N#CC(C#N)=NOCc1ccc(C#N)cc1F [Compound 69]
- inhibition rate against gray mold (gray mold): 100%
- inhibition rate against rice blast (rice blast): 100%

Structure (SMILES): N#CC(C#N)=NOCc1c(F)cccc1F [Compound 85]
- inhibition rate against rice blast (rice blast): 100%

Structure (SMILES): N#CC(C#N)=NOCc1cc(F)c(F)cc1F [Compound 86]
- control against corn rust (corn rust): more than 80%
- inhibition rate against gray mold (gray mold): 100%

Structure (SMILES): COC(=O)c1ccc(CON=C(C#N)C#N)cc1 [Compound 91]
- control against corn rust (corn rust): more than 80%
- inhibition rate against rice blast (rice blast): 100%

Structure (SMILES): N#CC(C#N)=NOCc1cccc(Oc2ccccc2)c1 [Compound 93]
- inhibition rate against rice blast (rice blast): 100%

Structure (SMILES): N#CC(C#N)=NOCc1ccccc1Oc1ccccc1 [Compound 94]
- control against corn rust (corn rust): more than 80%

Structure (SMILES): N#CC(C#N)=NOCc1ccccc1-c1ccc(F)cc1 [Compound 99]
- inhibition rate against gray mold (gray mold): 100%
- inhibition rate against rice blast (rice blast): 100%

Structure (SMILES): Cc1c(CON=C(C#N)C#N)cccc1-c1ccccc1 [Compound 102]
- inhibition rate against gray mold (gray mold): 100%
- inhibition rate against rice blast (rice blast): 100%

Structure (SMILES): N#CC(C#N)=NOCc1ccc(CCl)cc1 [Compound 103]
- control against corn rust (corn rust): more than 80%

Structure (SMILES): N#CC(C#N)=NOCc1cccc(CON=C(C#N)C#N)c1 [Compound 105]
- inhibition rate against gray mold (gray mold): 100%

Structure (SMILES): Cc1cc(C)c(CON=C(C#N)C#N)c(C)c1CON=C(C#N)C#N [Compound 106]
- inhibition rate against rice blast (rice blast): 100%

Structure (SMILES): N#CC(C#N)=NOCc1cnc(Cl)s1 [Compound 107]
- inhibition rate against gray mold (gray mold): 100%
- inhibition rate against rice blast (rice blast): 100%

Structure (SMILES): COC=C(C(=O)OC)c1ccccc1CON=C(C#N)C#N [Compound 109]
- control against corn rust (corn rust): more than 80%
- inhibition rate against gray mold (gray mold): 100%
- inhibition rate against rice blast (rice blast): 100%

Structure (SMILES): N#CC(C#N)=NOCc1cccc(C(=O)Nc2ccccc2-c2ccc(Cl)cc2)c1 [Compound 213]
- inhibition rate against rice blast (rice blast): 100%

Structure (SMILES): N#CC(C#N)=NOCc1ccccc1-c1cc(Cl)c(Cl)c(Cl)c1 [Compound 214]
- inhibition rate against gray mold (gray mold): 100%
- inhibition rate against rice blast (rice blast): 100%

Structure (SMILES): N#CC(C#N)=NOCc1cccc(NC(=O)Cc2ccc(Cl)cc2)c1 [Compound 215]
- inhibition rate against gray mold (gray mold): 100%
- inhibition rate against rice blast (rice blast): 100%

Structure (SMILES): N#CC(C#N)=NOCc1cccc(NC(=O)c2c(F)c(F)c(F)c(F)c2F)c1 [Compound 216]
- inhibition rate against gray mold (gray mold): 100%
- inhibition rate against rice blast (rice blast): 100%

Structure (SMILES): Cc1cccc(NC(=O)c2ccc(CON=C(C#N)C#N)cc2)n1 [Compound 218]
- inhibition rate against gray mold (gray mold): 100%
- inhibition rate against rice blast (rice blast): 100%

Structure (SMILES): N#CC(C#N)=NOCc1cccc(C(=O)NCc2ncc(C(F)(F)F)cc2Cl)c1 [Compound 220]
- inhibition rate against gray mold (gray mold): 100%
- inhibition rate against rice blast (rice blast): 100%

Structure (SMILES): N#CC(C#N)=NOCc1csc(-c2cccc(Cl)c2)n1 [Compound 221]
- inhibition rate against gray mold (gray mold): 100%
- inhibition rate against rice blast (rice blast): 100%

Structure (SMILES): Cn1cc(CON=C(C#N)C#N)c(C(F)(F)F)n1 [Compound 222]
- inhibition rate against rice blast (rice blast): 100%

Structure (SMILES): N#CC(C#N)=NOCc1ccc(C(=O)Nc2ccccc2-c2ccc(Cl)cc2)cc1 [Compound 224]
- inhibition rate against rice blast (rice blast): 100%

Structure (SMILES): N#CC(C#N)=NOCc1ccccc1-c1cccc(C(F)(F)F)c1 [Compound 225]
- inhibition rate against rice blast (rice blast): 100%

Structure (SMILES): Cc1cccc(NC(=O)c2cccc(CON=C(C#N)C#N)c2)n1 [Compound 228]
- inhibition rate against gray mold (gray mold): 100%
- inhibition rate against rice blast (rice blast): 100%

Structure (SMILES): N#CC(C#N)=NOCc1ccc(C(=O)NCC(F)F)cc1 [Compound 229]
- inhibition rate against rice blast (rice blast): 100%

Structure (SMILES): N#CC(C#N)=NOCc1ccc(C(=O)NCc2ncc(C(F)(F)F)cc2Cl)cc1 [Compound 230]
- inhibition rate against gray mold (gray mold): 100%
- inhibition rate against rice blast (rice blast): 100%

Structure (SMILES): N#CC(C#N)=NOCc1csc(-c2cccc(F)c2)n1 [Compound 231]
- inhibition rate against gray mold (gray mold): 100%
- inhibition rate against rice blast (rice blast): 100%

Structure (SMILES): N#CC(C#N)=NOCc1csc(-c2ccccc2F)n1 [Compound 232]
- inhibition rate against gray mold (gray mold): 100%
- inhibition rate against rice blast (rice blast): 100%

Structure (SMILES): N#CC(C#N)=NOCc1ccc(Oc2ncc(C(F)(F)F)cc2Cl)cc1 [Compound 233]
- control against corn rust (corn rust): more than 80%
- inhibition rate against rice blast (rice blast): 100%
